The values below come from article doi:10.1101/2024.02.13.579840.

The chains behind the UniProt entries cited, without tags or fusion partners.
UniProt Q9UHY1: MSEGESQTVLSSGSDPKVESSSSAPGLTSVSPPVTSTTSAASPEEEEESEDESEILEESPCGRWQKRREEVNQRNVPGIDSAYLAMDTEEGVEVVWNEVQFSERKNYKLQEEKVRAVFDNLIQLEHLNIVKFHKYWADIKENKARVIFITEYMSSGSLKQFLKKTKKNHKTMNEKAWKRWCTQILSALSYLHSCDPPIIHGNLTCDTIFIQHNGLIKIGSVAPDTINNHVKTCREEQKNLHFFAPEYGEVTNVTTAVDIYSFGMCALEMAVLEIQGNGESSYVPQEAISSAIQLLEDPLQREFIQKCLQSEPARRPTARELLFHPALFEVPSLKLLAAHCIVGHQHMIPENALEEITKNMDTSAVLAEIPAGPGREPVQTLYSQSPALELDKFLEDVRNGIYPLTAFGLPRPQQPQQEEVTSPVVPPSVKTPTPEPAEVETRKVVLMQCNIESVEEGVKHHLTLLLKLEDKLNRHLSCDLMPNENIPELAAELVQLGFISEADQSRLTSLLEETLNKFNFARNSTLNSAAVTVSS
UniProt Q9H4A3: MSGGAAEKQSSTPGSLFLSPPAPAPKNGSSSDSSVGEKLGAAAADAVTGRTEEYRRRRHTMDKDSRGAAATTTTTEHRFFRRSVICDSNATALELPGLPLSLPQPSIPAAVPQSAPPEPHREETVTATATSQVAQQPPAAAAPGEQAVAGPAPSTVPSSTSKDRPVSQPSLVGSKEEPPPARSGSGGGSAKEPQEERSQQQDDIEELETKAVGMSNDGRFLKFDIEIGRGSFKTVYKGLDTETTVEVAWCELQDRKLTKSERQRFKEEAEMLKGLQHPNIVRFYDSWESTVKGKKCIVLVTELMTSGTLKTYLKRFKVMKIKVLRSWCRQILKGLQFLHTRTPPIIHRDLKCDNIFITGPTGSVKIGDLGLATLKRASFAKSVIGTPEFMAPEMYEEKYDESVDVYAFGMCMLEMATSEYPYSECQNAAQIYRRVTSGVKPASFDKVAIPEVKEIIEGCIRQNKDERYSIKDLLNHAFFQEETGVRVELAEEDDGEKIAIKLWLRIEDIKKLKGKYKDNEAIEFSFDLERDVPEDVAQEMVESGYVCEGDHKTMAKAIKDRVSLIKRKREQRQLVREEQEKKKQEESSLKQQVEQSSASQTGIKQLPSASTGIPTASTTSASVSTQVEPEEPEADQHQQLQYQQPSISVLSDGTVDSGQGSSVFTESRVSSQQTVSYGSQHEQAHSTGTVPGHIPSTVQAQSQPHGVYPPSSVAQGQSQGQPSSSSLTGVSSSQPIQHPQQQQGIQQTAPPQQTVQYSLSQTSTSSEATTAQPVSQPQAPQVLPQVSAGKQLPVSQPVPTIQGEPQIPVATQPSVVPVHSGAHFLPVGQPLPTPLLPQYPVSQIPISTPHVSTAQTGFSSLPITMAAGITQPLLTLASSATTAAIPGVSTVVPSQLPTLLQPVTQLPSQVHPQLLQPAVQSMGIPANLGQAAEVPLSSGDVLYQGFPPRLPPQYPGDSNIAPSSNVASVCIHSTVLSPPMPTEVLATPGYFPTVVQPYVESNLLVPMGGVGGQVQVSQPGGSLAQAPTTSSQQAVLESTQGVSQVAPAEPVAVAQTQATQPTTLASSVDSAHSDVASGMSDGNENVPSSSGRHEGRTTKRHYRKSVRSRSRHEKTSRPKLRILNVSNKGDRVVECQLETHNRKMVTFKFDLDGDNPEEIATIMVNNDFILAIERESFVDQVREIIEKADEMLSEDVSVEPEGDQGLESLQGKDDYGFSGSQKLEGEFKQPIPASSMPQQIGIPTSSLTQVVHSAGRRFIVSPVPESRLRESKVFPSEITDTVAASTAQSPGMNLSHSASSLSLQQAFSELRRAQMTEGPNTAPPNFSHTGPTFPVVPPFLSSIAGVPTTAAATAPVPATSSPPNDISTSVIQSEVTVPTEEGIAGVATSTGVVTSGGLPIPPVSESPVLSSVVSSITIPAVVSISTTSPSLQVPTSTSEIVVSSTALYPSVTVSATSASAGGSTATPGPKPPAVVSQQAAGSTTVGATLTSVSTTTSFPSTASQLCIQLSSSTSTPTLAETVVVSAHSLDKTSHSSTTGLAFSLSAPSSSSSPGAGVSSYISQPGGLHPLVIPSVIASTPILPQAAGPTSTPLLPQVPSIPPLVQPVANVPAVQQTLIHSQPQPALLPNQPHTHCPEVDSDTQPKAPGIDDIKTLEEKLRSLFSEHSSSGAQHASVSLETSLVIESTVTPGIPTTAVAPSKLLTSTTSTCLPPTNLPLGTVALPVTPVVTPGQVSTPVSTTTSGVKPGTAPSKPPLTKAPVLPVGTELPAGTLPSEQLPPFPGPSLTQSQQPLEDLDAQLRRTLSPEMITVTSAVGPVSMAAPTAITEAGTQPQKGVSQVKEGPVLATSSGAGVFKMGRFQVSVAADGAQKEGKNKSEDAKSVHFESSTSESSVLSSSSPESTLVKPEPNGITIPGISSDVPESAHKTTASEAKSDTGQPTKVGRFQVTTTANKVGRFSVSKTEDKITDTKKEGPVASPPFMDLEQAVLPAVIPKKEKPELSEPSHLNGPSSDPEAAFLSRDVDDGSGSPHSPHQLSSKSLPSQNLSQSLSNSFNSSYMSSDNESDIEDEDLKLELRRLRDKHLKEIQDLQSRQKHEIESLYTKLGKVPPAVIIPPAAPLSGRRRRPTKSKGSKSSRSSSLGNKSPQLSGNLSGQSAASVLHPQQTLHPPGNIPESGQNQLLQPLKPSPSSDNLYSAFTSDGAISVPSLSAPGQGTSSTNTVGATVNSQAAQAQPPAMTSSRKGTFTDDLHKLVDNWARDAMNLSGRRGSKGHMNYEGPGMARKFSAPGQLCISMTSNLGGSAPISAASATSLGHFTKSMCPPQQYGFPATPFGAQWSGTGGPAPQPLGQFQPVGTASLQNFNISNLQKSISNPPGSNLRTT

Holding throughout (test): co-IP
Experiment [1] addresses T1, FLAG-tagged TSC22D2-Cterm (258-780) (human) (UniProt O75157).
T1 sequence: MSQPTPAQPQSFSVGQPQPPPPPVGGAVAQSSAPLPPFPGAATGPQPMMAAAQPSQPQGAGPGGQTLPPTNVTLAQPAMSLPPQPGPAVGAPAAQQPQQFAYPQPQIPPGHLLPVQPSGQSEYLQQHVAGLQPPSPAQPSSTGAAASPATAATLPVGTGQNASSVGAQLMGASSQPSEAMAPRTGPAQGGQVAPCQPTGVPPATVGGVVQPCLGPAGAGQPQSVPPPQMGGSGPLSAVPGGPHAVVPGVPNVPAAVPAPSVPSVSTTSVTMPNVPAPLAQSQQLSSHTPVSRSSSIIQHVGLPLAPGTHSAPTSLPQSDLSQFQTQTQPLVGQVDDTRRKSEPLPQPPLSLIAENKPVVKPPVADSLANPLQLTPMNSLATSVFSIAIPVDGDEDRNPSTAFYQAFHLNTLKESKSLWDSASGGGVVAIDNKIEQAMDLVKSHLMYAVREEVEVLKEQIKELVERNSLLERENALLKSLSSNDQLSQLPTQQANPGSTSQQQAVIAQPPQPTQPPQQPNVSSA

The target of experiment [2] is T2, FLAG-tagged full-length (FL) TSC22D2 (human) (UniProt O75157).
T2 sequence: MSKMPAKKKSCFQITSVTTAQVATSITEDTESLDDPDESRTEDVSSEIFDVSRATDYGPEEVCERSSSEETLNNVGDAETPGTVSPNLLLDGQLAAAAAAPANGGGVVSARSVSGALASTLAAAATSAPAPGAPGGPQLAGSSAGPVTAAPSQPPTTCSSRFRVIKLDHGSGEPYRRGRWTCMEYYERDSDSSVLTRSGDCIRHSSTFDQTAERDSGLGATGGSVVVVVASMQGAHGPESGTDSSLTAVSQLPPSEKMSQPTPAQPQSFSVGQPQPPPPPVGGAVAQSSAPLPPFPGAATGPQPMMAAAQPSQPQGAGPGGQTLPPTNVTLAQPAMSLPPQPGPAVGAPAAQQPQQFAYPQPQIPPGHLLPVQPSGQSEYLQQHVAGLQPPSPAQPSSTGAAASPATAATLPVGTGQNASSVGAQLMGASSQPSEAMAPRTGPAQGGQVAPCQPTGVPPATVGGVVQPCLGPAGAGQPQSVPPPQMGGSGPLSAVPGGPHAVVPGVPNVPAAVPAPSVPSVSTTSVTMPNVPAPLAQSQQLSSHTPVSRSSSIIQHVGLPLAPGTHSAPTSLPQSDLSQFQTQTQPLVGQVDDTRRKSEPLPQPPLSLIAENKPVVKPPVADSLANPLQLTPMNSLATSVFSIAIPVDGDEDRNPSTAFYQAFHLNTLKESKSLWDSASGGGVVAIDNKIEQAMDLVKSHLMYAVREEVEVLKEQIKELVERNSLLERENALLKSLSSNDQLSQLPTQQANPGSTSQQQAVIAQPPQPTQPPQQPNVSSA

Experiment [3] concerns the target FLAG-tagged full-length (FL) NRBP1 (human) (UniProt Q9UHY1).
Experiment [4] has as its target T3, FLAG-tagged TSC22D2-Nterm (1-257) (human) (UniProt O75157).
T3 sequence: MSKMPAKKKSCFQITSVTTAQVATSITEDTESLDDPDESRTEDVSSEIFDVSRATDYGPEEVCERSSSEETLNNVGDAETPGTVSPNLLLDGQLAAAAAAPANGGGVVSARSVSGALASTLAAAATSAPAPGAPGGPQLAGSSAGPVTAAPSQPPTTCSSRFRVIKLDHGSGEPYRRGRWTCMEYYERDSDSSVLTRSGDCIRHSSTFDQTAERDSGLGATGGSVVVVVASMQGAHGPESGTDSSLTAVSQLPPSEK

Results are given in words; binding and its absence hold for the method and conditions named. In cells and extracts the contact can be indirect. Some results given as binding are weak or reduced against the parent protein; the word gives no strength. For some of these results: Where a sequence is shown, tags or fusion partners need not be part of it.

In the case of “endogenous WNK1 (HEK293T) (from UniProt Q9H4A3 1-2382)”, the binding entry is recorded as “no binding” in experiment [1], “binds” in experiment [2], “binds” in experiment [3] and “binds” in experiment [4].
